From PMC11898276 come the findings set out here.

Amino acid sequences for entries named in this document (tags omitted). Residues count along the entry.
UniProt P11142: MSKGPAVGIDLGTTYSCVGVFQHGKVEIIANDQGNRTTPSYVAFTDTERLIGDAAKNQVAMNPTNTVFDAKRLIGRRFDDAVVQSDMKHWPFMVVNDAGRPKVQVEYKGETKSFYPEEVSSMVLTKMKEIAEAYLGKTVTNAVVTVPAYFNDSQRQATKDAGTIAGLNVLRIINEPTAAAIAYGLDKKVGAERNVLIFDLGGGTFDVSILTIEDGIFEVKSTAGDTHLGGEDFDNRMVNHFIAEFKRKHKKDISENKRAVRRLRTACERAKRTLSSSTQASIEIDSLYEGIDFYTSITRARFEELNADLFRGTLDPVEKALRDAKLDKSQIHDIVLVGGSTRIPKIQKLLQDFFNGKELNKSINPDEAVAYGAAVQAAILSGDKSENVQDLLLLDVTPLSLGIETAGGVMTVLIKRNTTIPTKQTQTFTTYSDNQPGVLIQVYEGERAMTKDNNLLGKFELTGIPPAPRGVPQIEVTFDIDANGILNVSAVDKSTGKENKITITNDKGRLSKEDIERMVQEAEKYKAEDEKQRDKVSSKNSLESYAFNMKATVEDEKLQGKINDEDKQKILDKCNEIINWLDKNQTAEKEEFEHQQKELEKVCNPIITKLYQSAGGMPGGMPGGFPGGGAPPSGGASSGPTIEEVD
UniProt P13473, residues 29-410: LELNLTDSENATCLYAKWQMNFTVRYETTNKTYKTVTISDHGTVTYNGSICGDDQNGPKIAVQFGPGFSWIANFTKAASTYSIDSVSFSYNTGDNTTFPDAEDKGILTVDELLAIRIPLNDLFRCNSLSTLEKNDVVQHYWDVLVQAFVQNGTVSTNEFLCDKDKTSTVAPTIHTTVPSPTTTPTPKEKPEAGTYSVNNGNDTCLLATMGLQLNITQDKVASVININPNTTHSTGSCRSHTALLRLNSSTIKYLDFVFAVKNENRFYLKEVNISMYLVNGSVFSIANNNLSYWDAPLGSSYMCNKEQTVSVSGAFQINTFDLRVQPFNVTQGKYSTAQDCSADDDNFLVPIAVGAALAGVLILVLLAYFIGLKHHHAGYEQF
UniProt Q86WV6: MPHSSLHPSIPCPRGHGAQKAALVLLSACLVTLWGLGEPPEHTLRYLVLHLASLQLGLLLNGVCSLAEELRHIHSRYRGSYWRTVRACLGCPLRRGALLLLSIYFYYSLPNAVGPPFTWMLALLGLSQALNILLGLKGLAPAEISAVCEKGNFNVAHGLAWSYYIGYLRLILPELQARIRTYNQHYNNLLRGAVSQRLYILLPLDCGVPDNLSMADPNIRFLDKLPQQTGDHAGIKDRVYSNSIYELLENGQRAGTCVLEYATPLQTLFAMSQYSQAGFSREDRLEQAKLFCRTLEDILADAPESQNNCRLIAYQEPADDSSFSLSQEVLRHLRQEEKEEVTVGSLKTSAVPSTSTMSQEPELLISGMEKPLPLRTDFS

These are yes or no findings as the source states them, for the method shown. Binding seen in cells or lysates may run through a third protein. Some binding calls cover weakened binding; strength is not graded here. For some of these results: Where a sequence is shown, tags or fusion partners need not be part of it.

The target of test [1] is heat shock protein family A member 8 (HSPA8) (UniProt P11142). Put plainly: co-IP; HSPA8 immunoprecipitated from cell lysate, FLAG-STING detected by blot; lysis buffer 140 mM KCl, 3 mM MgCl2, 1% NP-40, 20 mM HEPES pH 7.4, 1 mM EDTA, 1.5 mM EGTA; antibody overnight at 4 °C, protein G Sepharose.
The target of the next test is LAMP2A (UniProt P13473). Put plainly: co-IP; co-IP of STING or TBK1 with LAMP2A from cell lysate, with and without starvation of the cells; which partner was precipitated is not stated; lysis buffer 140 mM KCl, 1% NP-40, 20 mM HEPES pH 7.4.
In the next test the target is T1, HA-TBK1 WT (human) (UniProt Q9UHD2).
T1 sequence: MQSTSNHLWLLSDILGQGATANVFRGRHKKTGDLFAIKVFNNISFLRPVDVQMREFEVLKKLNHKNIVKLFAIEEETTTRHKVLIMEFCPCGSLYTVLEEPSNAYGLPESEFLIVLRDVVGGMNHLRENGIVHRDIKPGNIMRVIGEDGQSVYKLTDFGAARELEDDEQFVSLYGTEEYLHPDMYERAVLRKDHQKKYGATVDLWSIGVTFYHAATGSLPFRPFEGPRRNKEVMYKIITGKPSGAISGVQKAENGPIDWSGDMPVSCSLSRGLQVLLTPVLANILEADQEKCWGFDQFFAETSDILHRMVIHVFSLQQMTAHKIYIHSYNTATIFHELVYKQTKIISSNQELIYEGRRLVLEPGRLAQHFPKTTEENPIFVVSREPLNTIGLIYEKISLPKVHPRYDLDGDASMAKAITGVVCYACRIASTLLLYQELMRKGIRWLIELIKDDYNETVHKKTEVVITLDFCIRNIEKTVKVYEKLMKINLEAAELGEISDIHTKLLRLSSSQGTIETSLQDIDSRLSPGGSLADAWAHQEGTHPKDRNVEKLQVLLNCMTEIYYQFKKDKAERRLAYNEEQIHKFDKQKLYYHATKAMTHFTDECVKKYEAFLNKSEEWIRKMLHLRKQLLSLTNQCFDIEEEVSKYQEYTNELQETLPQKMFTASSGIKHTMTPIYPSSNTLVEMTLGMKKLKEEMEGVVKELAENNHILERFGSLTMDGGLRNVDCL
Briefly: co-IP; TBK1 (HA-TBK1) immunoprecipitated from cell lysate, HSPA8 detected by blot; lysis buffer 140 mM KCl, 3 mM MgCl2, 1% NP-40, 20 mM HEPES pH 7.4, 1 mM EDTA, 1.5 mM EGTA; antibody overnight at 4 °C, protein G Sepharose.

Turning to “FLAG-STING WT (from UniProt Q86WV6 1-379)”, the binding result in test [1] is on record as “binds”.
Take STING (from UniProt Q86WV6 1-379): the binding result with LAMP2A is recorded as “binds”.
With “heat shock protein family A member 8 (HSPA8) (from UniProt P11142 1-646)”, the binding result with HA-TBK1 WT (human) was “binds”.

B1: TBK1 (enzyme, UniProt Q9UHD2 1-729)
chain: T1 sequence
On to B1, for which, in the test with LAMP2A, the binding entry is recorded as “binds”.
